No constants are given. Whether binding was seen depends on the method and setting.

Protein sequences, listed by entry. Tags and fused reporters are not part of them. Residues count along the entry.
UniProt Q12809, residues 734-864: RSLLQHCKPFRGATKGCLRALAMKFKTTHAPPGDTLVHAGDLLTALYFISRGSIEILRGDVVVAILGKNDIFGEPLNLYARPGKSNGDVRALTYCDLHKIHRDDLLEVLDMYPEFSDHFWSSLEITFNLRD

Test [1] concerns the target cyclic nucleotide-binding homology domain (CNBHD) of the hERG channel, residues R734 to D864 (human) (UniProt Q12809). The experiment in a line: NMR 15N relaxation (correlation time from R2/R1); 15N-labelled CNBHD in NMR buffer, 298 K, 700 MHz; estimated correlation time about 12.2 ns; both purified.
For test [2] the target is unchanged. Nature of the test: NMR titration; 1H-15N-HSQC spectra of 0.2 mM 15N-labeled CNBHD in the absence and presence of 0.5 mM peptide; both purified.

On to “cyclic nucleotide-binding homology domain (CNBHD) of the hERG channel, residues R734 to D864 (from UniProt Q12809 734-864) (domain or fragment)”, for which, in test [1], the binding result is reported as “no binding”.
As to TFLDTIIRKFE [peptide derived from the cap domain helix of hERG (T13-E23)], the binding result in test [2] is “no binding (tested: 0.5 mM peptide)”.

(Values after paper PMC4812329.)
